Measured values reported in the supplement of paper PMC11659162.
The other results are listed elsewhere or left out. The data scatter; read single values as rough.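 The cells are a human neuroglioma line carrying a green fluorescent autophagy reporter.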

How the values were obtained:
H4 GFP-LC3 [1] = test: cell viability (scaled to control) (fraction of control); higher = more viable cells
H4 GFP-LC3 [2] = test: ACBP immunofluorescence intensity (scaled to control) (AU (scaled)); higher = more intracellular ACBP/DBI

| Structure (SMILES) | cell viability (H4 GFP-LC3 [1]; 6 h) | cell viability (H4 GFP-LC3 [1]; 24 h) | ACBP immunofluorescence intensity (H4 GFP-LC3 [2]; 6 h) | ACBP immunofluorescence intensity (H4 GFP-LC3 [2]; 24 h) |
| --- | --- | --- | --- | --- |
| Cc1nc2n(c(=O)c1CCN1CCC(c3noc4cc(F)ccc34)CC1)CCCC2 (5 µM) | 0.886 | 1.23 | 0.82 | 0.719 |
| CN1CCN(C2=Nc3cc(Cl)ccc3Nc3ccccc32)CC1 (5 µM) | 0.731 | 0.972 | 0.975 | 0.436 |
| O=C1CC2(CCCC2)CC(=O)N1CCNCC1COc2ccccc2O1 (stereo not given) (5 µM) | 0.847 | 1.02 | 0.804 | 0.425 |
| O=C(Nc1ccccc1)C12CC1C(=NO)c1ccccc1O2 (stereo not given) (5 µM) | 0.941 | 1.32 | 0.955 | 0.729 |
| C[N+](C)(C)CCOC(N)=O (5 µM) | 0.992 | 1.32 | 0.931 | 0.69 |
| CC[C@H](C)[C@H](NC(=O)[C@H](CC(=O)O)NC(=O)[C@H](CC(C)C)NC(=O)[C@H](Cc1c[nH]cn1)NC(=O)[C@@H]1CSSC[C@@H](N)C(=O)N[C@H](CO)C(=O)N[C@H]2CSSC[C@@H](NC(=O)[C@H](CCC(=O)O)NC(=O)[C@H](CCCCN)NC(=O)[C@@H](CC(=O)O)NC(=O)[C@H](CCSC)NC(=O)[C@@H](CC(C)C)NC(=O)[C@H](CO)NC(=O)[C@@H](CO)NC2=O)C(=O)N[C@@H](C(C)C)C(=O)N[C@H](Cc2ccc(O)cc2)C(=O)N[C@@H](Cc2ccccc2)C(=O)N1)C(=O)N[C@H](C(=O)N[C@@H](Cc1c[nH]c2ccccc12)C(=O)O)[C@@H](C)CC (5 µM) | 1.12 | 0.973 | 0.575 | 0.64 |
| CN1CCC(=C2c3ccccc3CC(=O)c3sccc32)CC1 (5 µM) | 1.1 | 0.926 | 0.943 | 0.611 |
| CC(C)C[C@H](NC(=O)CNC(=O)[C@H](Cc1ccc(O)cc1)NC(=O)[C@H](CO)NC(=O)[C@H](Cc1c[nH]c2ccccc12)NC(=O)[C@H](Cc1cnc[nH]1)NC(=O)[C@@H]1CCC(=O)N1)C(=O)N[C@@H](CCCNC(=N)N)C(=O)N1CCC[C@H]1C(=O)NCC(N)=O (5 µM) | 1.22 | 1.07 | 0.412 | 0.792 |
| OCCN1CCN(CC/C=C2/c3ccccc3Sc3ccc(C(F)(F)F)cc32)CC1 (5 µM) | 0.778 | 1.17 | 0.929 | 0.681 |
| CCS(=O)(=O)N1CCC[C@@H]2CN3CCc4cc(OC)ccc4[C@@H]3C[C@@H]21 (5 µM) | 0.927 | 1.04 | 0.85 | 0.566 |
| CN1CCC(=C2c3ccccc3CCc3sccc32)CC1 (5 µM) | 0.868 | 1.01 | 0.903 | 0.565 |
| Cc1ccc(OCC(O)C(C)NC(C)C)c2c1CCC2 (stereo not given) (5 µM) | 0.788 | 0.778 | 0.84 | 0.385 |
| NC(N)=Nc1nc(CSCC/C(N)=N/S(N)(=O)=O)cs1 (5 µM) | 1.04 | 1.1 | 0.943 | 0.817 |
| CCC1(c2ccccc2)C(=O)NCNC1=O (5 µM) | 0.964 | 1.17 | 0.924 | 0.507 |
| N[C@H](C(=O)O)c1ccc(C(=O)O)cc1 (5 µM) | 1.11 | 1.48 | 0.956 | 0.552 |
| NC(N)=NC(N)=Nc1cccc(Cl)c1 (5 µM) | 0.812 | 0.993 | 0.843 | 0.539 |
| C[C@H](N)C(=O)NCC(=O)N[C@H]1CSSC[C@@H](C(=O)O)NC(=O)[C@H](CO)NC(=O)[C@H]([C@@H](C)O)NC(=O)[C@H](Cc2ccccc2)NC(=O)[C@H]([C@@H](C)O)NC(=O)[C@H](CCCCN)NC(=O)[C@H](Cc2c[nH]c3ccccc23)NC(=O)[C@H](Cc2ccccc2)NC(=O)[C@H](Cc2ccccc2)NC(=O)[C@H](CC(N)=O)NC(=O)[C@H](CCCCN)NC1=O (5 µM) | 1.09 | 1.03 | 0.893 | 0.761 |
| CN(C)CCCSC(=N)N (5 µM) | 1.12 | 0.982 | 0.882 | 0.517 |
| COc1cc(C(=O)OCCCN2CCCN(CCCOC(=O)c3cc(OC)c(OC)c(OC)c3)CC2)cc(OC)c1OC (5 µM) | 0.904 | 1.01 | 0.994 | 0.92 |
| O=C(Nc1cc(Cl)cc(Cl)c1)[C@H]1CCCC[C@H]1C(=O)O (5 µM) | 1.07 | 1.3 | 0.788 | 0.469 |
| Fc1ccc([C@@H]2CCNC[C@H]2COc2ccc3c(c2)OCO3)cc1 (5 µM) | 0.85 | 1.09 | 0.912 | 0.797 |
| C=CCN1CCc2c(cc(O)c(O)c2Cl)C(c2ccccc2)C1 (racemic) (5 µM) | 0.717 | 1.23 | 0.939 | 0.467 |
| Cn1c(=O)c2[nH]c(-c3ccc(S(=O)(=O)O)cc3)nc2n(C)c1=O (5 µM) | 1.04 | 1.05 | 0.899 | 0.61 |
| COc1ccccc1N1CCN(CCN2C(=O)CC3(CCCC3)CC2=O)CC1 (5 µM) | 0.816 | 0.87 | 0.946 | 0.558 |
| CSCC[C@H](NC(=O)[C@H](CC(C)C)NC(=O)CNC(=O)[C@H](Cc1ccccc1)NC(=O)[C@H](Cc1ccccc1)NC(=O)[C@H](CCC(N)=O)NC(=O)[C@H](CCC(N)=O)NC(=O)[C@@H]1CCCN1C(=O)[C@H](CCCCN)NC(=O)[C@@H]1CCCN1C(=O)[C@@H](N)CCCN=C(N)N)C(N)=O (5 µM) | 1.11 | 1.07 | 0.632 | 0.754 |
| CCCn1cnc2c1c(=O)n(CCCCC(C)=O)c(=O)n2C (5 µM) | 0.963 | 1.08 | 0.914 | 0.551 |
| CN1CCN(C2=Nc3ccccc3Sc3ccc(Cl)cc32)CC1 (5 µM) | 0.757 | 0.936 | 0.838 | 0.48 |
| CN/C(=N\CCSCc1nc[nH]c1C)NC#N (5 µM) | 0.981 | 1.07 | 0.875 | 0.683 |

Of the compounds above, these contain two or more sulfur atoms.

| Structure (SMILES) | cell viability (H4 GFP-LC3 [1]; 6 h) | cell viability (H4 GFP-LC3 [1]; 24 h) | ACBP immunofluorescence intensity (H4 GFP-LC3 [2]; 6 h) | ACBP immunofluorescence intensity (H4 GFP-LC3 [2]; 24 h) |
| --- | --- | --- | --- | --- |
| CC[C@H](C)[C@H](NC(=O)[C@H](CC(=O)O)NC(=O)[C@H](CC(C)C)NC(=O)[C@H](Cc1c[nH]cn1)NC(=O)[C@@H]1CSSC[C@@H](N)C(=O)N[C@H](CO)C(=O)N[C@H]2CSSC[C@@H](NC(=O)[C@H](CCC(=O)O)NC(=O)[C@H](CCCCN)NC(=O)[C@@H](CC(=O)O)NC(=O)[C@H](CCSC)NC(=O)[C@@H](CC(C)C)NC(=O)[C@H](CO)NC(=O)[C@@H](CO)NC2=O)C(=O)N[C@@H](C(C)C)C(=O)N[C@H](Cc2ccc(O)cc2)C(=O)N[C@@H](Cc2ccccc2)C(=O)N1)C(=O)N[C@H](C(=O)N[C@@H](Cc1c[nH]c2ccccc12)C(=O)O)[C@@H](C)CC (5 µM) | 1.12 | 0.973 | 0.575 | 0.64 |
| NC(N)=Nc1nc(CSCC/C(N)=N/S(N)(=O)=O)cs1 (5 µM) | 1.04 | 1.1 | 0.943 | 0.817 |
| C[C@H](N)C(=O)NCC(=O)N[C@H]1CSSC[C@@H](C(=O)O)NC(=O)[C@H](CO)NC(=O)[C@H]([C@@H](C)O)NC(=O)[C@H](Cc2ccccc2)NC(=O)[C@H]([C@@H](C)O)NC(=O)[C@H](CCCCN)NC(=O)[C@H](Cc2c[nH]c3ccccc23)NC(=O)[C@H](Cc2ccccc2)NC(=O)[C@H](Cc2ccccc2)NC(=O)[C@H](CC(N)=O)NC(=O)[C@H](CCCCN)NC1=O (5 µM) | 1.09 | 1.03 | 0.893 | 0.761 |

Remaining list, next part.

| Structure (SMILES) | cell viability (H4 GFP-LC3 [1]; 6 h) | cell viability (H4 GFP-LC3 [1]; 24 h) | ACBP immunofluorescence intensity (H4 GFP-LC3 [2]; 6 h) | ACBP immunofluorescence intensity (H4 GFP-LC3 [2]; 24 h) |
| --- | --- | --- | --- | --- |
| N[C@@H]1CCN(O)C1=O (5 µM) | 1.11 | 1.24 | 0.697 | 0.507 |
| CCC(NC(C)C)C(O)c1ccc(O)c2[nH]c(=O)ccc12 (stereo not given) (5 µM) | 0.914 | 0.803 | 0.728 | 0.391 |
| COc1cc2c3cc1Oc1cc(ccc1O)C[C@@H]1c4c(cc(OC)c(O)c4Oc4ccc(cc4)C[C@@H]3N(C)CC2)CC[N+]1(C)C (5 µM) | 0.956 | 1.19 | 0.983 | 0.675 |
| CN[C@H](CC(=O)O)C(=O)O (5 µM) | 0.964 | 1.04 | 0.991 | 0.786 |
| Nc1c2c(nc3ccccc13)CCCC2 (5 µM) | 0.854 | 1.39 | 0.999 | 0.785 |
| CN(CCc1ccc(Cl)c(Cl)c1)CCN1CCCC1 (5 µM) | 0.935 | 1.15 | 0.944 | 0.846 |
| CC(C)NCC(O)COc1ccc(CCOCC2CC2)cc1 (stereo not given) (5 µM) | 0.947 | 1.06 | 0.886 | 0.499 |
| CNC(=C[N+](=O)[O-])NCCSCc1ccc(CN(C)C)o1 (5 µM) | 0.863 | 1.12 | 0.997 | 0.886 |
| OC1(c2ccc(Cl)cc2)CCN(Cc2c[nH]c3ccccc23)CC1 (5 µM) | 0.656 | 0.897 | 0.933 | 0.481 |
| CN(C)CCCCSC(=N)N (5 µM) | 0.97 | 1.23 | 0.983 | 0.896 |
| O=C(Cc1ccccc1)Nc1nc2ccc(Cl)cc2c2nc(-c3ccco3)nn12 (5 µM) | 0.997 | 0.935 | 0.971 | 0.65 |
| N=C(N)NCCCCNC(=N)N (5 µM) | 1.03 | 1.16 | 0.974 | 0.836 |
| Cc1nc(N=Nc2cc(S(=O)(=O)O)c3cc([N+](=O)[O-])cc(S(=O)(=O)O)c3c2)c(COP(=O)(O)O)c(C=O)c1O (5 µM) | 1.07 | 1.01 | 0.996 | 0.701 |
| NC(=O)OCC(COC(N)=O)c1ccccc1 (5 µM) | 1.09 | 1.55 | 0.957 | 0.807 |
| CSCC[C@H](NC(=O)[C@H](CC(C)C)NC(=O)CNC(=O)[C@@H](NC(=O)[C@H](Cc1ccccc1)NC(=O)[C@H](CO)NC(=O)[C@H](CC(=O)O)NC(=O)[C@@H](NC(=O)[C@H](CCCCN)NC(=O)[C@@H](N)Cc1c[nH]cn1)[C@@H](C)O)C(C)C)C(N)=O (5 µM) | 1.16 | 0.964 | 0.581 | 0.902 |
| O=C(CCCN1CCC(O)(c2ccc(Cl)cc2)CC1)c1ccc(F)cc1 (5 µM) | 0.686 | 1.13 | 0.949 | 0.55 |
| CC(C)[N+]1(C)[C@@H]2CC[C@H]1C[C@@H](OC(=O)C(CO)c1ccccc1)C2 (stereo not given in full) (5 µM) | 0.923 | 1.13 | 0.88 | 0.509 |
| Clc1ccc2c(c1)CCc1cccnc1C2=C1CCNCC1 (5 µM) | 1.01 | 0.943 | 0.961 | 0.76 |
| CN(C)CCOC(c1ccccc1)c1ccccc1 (5 µM) | 0.999 | 0.945 | 0.95 | 0.56 |
| CCn1ccnc1CC1COc2ccccc2O1 (stereo not given) (5 µM) | 0.939 | 1.1 | 0.826 | 0.514 |
| OC(CN1CCN(c2cccc(Cl)c2)CC1)C(c1ccccc1)c1ccccc1 (stereo not given) (5 µM) | 0.715 | 0.623 | 0.999 | 0.908 |
| N[C@@H](Cc1cc(I)c(Oc2cc(I)c(O)c(I)c2)c(I)c1)C(=O)O (5 µM) | 1.1 | 0.965 | 0.432 | 0.651 |
| COc1cccc2c1C(=O)c1c(O)c3c(c(O)c1C2=O)C[C@@](O)(C(=O)CO)C[C@@H]3O[C@H]1C[C@H](N)[C@H](O)[C@H](C)O1 (5 µM) | 0.723 | 1.33 | 0.995 | 0.66 |
| CN(C)CCCN1c2ccccc2CCc2ccc(Cl)cc21 (5 µM) | 0.717 | 0.806 | 0.97 | 0.482 |
| COc1cc(N)c(Cl)cc1C(=O)OCCCN1CCCCC1 (5 µM) | 0.775 | 0.98 | 0.98 | 0.53 |
| NCC(=O)O (5 µM) | 1.16 | 1.06 | 0.729 | 0.575 |
| CCC(C)C(NC(=O)C(C)NC(=O)C(CC(N)=O)NC(=O)C(CCCCN)NC(=O)C(Cc1ccccc1)NC(=O)C(CC(C)C)NC(=O)C(NC(=O)C(NC(=O)C(CC(C)C)NC(=O)C1CCCN1C(=O)C(NC(=O)C(CCC(N)=O)NC(=O)C(CO)NC(=O)C(CCCCN)NC(=O)C(CCC(=O)O)NC(=O)C(CO)NC(=O)C(NC(=O)C(CCSC)NC(=O)C(Cc1ccccc1)NC(=O)CNC(=O)CNC(=O)C(N)Cc1ccc(O)cc1)C(C)O)C(C)O)C(C)C)C(C)O)C(=O)NC(C(=O)NC(CCCCN)C(=O)NC(CC(N)=O)C(=O)NC(C)C(=O)NC(Cc1ccc(O)cc1)C(=O)NC(CCCCN)C(=O)NC(CCCCN)C(=O)NCC(=O)NC(CCC(=O)O)C(=O)O)C(C)CC (stereo not given) (5 µM) | 1.22 | 1.1 | 0.877 | 0.788 |
